In article PMC5106528, “High-Throughput Toxicity and Phenotypic Screening of 3D Human Neural Progenitor Cell Cultures on a Microarray Chip Platform” (Stem Cell Reports, 2016):

Experiments:
[1] = system: differentiating ReNcell VM NPCs; conditions: human, 72 h
Procedure: (§1) On-chip cultures of undifferentiated and 10-day differentiated NPCs were stamped with WellChips filled with compound-containing solutions and incubated for 72 hr prior to viability assessment. Vehicle-control normalized viabilities were plotted against compound concentration to generate dose-response plots (Figures 5A and S4). […] The sigmoidal fits for undifferentiated and differentiating NPCs were compared to assess whether differential sensitivities (i.e., different IC50 values) existed for the screened compounds.
(§2) Cell viability was determined in 3D on-chip cultures using a mammalian cell viability assay (LIVE/DEAD, Invitrogen). Prior to the assay, dead cell controls were prepared with 30 min incubation in a WellChip containing either […] 0.5% (w/v) saponin-DMEM/F12 medium in its microwells. […] After staining, PillarChips were rinsed twice with warm DPBS and incubated in DPBS containing 50 mM trehalose (Sigma) for 10 min before rapid drying with nitrogen and storage in the dark. Dried PillarChips were imaged with a Thermo Scientific Cellomics ArrayScan VTI high-content system.
(§3) Undifferentiated and differentiated microchip cultures were prepared as described above. Chemicals were purchased from Sigma or the NIH Small Molecule Repository (Table S2). Concentrated stocks were prepared and diluted into ReNcell Maintenance Medium to prepare the highest screened concentration solution for each compound. Four-fold serial dilutions were made in ReNcell Maintenance Medium, with all solutions having a final concentration of 0.5% or 1% DMSO (v/v) and 20 μg/mL Matrigel. For undifferentiated cultures, the solutions also contained 20 ng/mL of EGF and FGF2. These solutions were printed into WellChips, covered with a gas-permeable membrane, and warmed at 37°C for at least 5 min before stamping with cells. Each WellChip contained six compounds each at six concentrations (n = 10 biological replicates for each concentration) and the appropriate medium containing 0.5% or 1% DMSO for vehicle and dead controls (n = 32 biological replicates per control). PillarChip cultures were incubated with compounds for 72 hr with daily medium exchange to freshly prepared WellChips containing compounds at the appropriate concentrations. […] On-chip toxicity screens were repeated three times for undifferentiated and differentiated cultures. […]

[2] = system: undifferentiated ReNcell VM NPCs; conditions: human, 72 h
Procedure: as §1, §2, §3

Compound	Normalized viability at Cmax, Differentiating, Mean ± SEM [1]	Normalized viability at Cmax, Undifferentiated, Mean ± SEM [2]
CN(C)CCOC(c1ccccc1)c1ccccc1 [Diphenhydramine]	-0.02 ± 0.08	-0.07 ± 0.02
CCCNCC(O)COc1ccccc1C(=O)CCc1ccccc1 (stereo not shown) [Rythmol]	1.09 ± 0.20	0.08 ± 0.12
